# Test results published in patent US9911927B2, “Compounds having semiconducting properties and related compositions and devices” (Flexterra, Inc., priority 2011, dated 2018).
# Assays:
# [1] = OTFT performance, top gate bottom contact (TGBC) devices, spin-coated semiconductor; conditions: spin-coating (<40° C.), Ag contacts
# Description: Device Fabrication Procedure (Top Gate Bottom Contact (TGBC)): For TGBC devices, PolyEthyleneNaphthalate (PEN) substrates (2″×2″) were planarized with UV-curable polymeric films (ActivInk D1400, Polyera Corp., Skokie, Ill.). A silver layer of 30 nm was then deposited by thermal evaporation. Source and drain contacts were patterned using photolithography process and silver was etched by a mixture of acids and water. The semiconductor was spun from a hydrocarbon solution (15 mg-mL) at 2000 rpm. The semiconductor film thickness depends on the solubility of the semiconductor. […] These films were then baked on a hot plate at 110° C. for 10 min to remove residual solvent. The amorphous fluoropolymer CYTOP (CTL-809M, Asahi Glass Corporation) was spun as the top-gate dielectric at 5000 rpm to a thickness of about 450 nm, and baked on a hot plate at about 110° C. for 10 minutes. The device structure was completed by the evaporation of an aligned Ag top-gate stripe.
# (§1) The TFT performance of 2,9-1MP-DNTT were compared vis-a-vis to that of C8-DNTT (synthesized according to the procedure reported in Org. Lett. 2011, 13, 3430) in several device architectures.
# (§2) All devices were characterized in a Signatone Probe Station using a Keithley 4200 Semiconductor Characterization System to obtain transfer and output characteristics. Device parameters were extracted from the transfer characteristics according to standard transistor equations.
# [2] = OTFT performance, bottom gate top contact (BGTC) devices, semiconductor by physical vapor deposition; conditions: PVD, Au contacts
# Text: Device Fabrication Procedure (Bottom Gate Top Contact (BGTC)): BGTC TFTs were fabricated using compounds of the present teachings as the semiconductor layer. N-doped silicon wafers (100) with 3000 Å thermally grown silicon dioxide layer (Addison Inc. were used as device substrates. Prior to deposition of the semiconductor, the Si/SiO2 surfaces were modified through a special octadecyltrichlorosilane (OTS) treatment process. Thin films of semiconductors approximately 40-120 nm in thickness were prepared through physical vapor deposition (PVD), with the deposition rate of 0.1-0.5 Å/s and the substrate temperature of 30-120° C. The TFTs were completed by vapor deposition of 300 Å gold source/drain electrodes onto the semiconductor layer through a stencil mask to define the transistor channel. The channel lengths and widths are about 50-200 μm and about 500-2000 μm, respectively. The silicon dioxide layer served as the gate insulator. The gate electrode was accessed through an ohmic contact to the doped silicon.
# as §1, §2
# [3] = OTFT performance, bottom gate bottom contact (BGBC) devices, spin-coated semiconductor; conditions: spin-coating (<40° C.), channel length 10 μm, Ag contacts
# Text: Device Fabrication Procedure (Bottom Gate Bottom Contact (BGBC)): For BGBC devices, a Cr/Au gate stripe was evaporated on clean PEN substrates. Subsequently, UV-curable polymeric films (ActivInk D1450, Polyera Corp., Skokie, Ill.) were spun (thickness ˜500 nm) and cured to form the bottom-gate dielectric. A silver layer of 30 nm was then deposited by thermal evaporation. Source and drain contacts were patterned using photolithography process and silver was etched by a mixture of acids and water. Thin films of the semiconductor were prepared according to the same protocols as for the TGBC devices.
# as §1, §2
SMILES,average hole mobility μmean ([1]; channel length 10 μm) [cm^2/V · s],on/off ratio ION/IOFF ([1]; channel length 10 μm),threshold voltage VT ([1]; channel length 10 μm),average hole mobility μmean [3] [cm^2/V · s],on/off ratio ION/IOFF [3],threshold voltage VT [3] [V],average hole mobility μmean ([2]; channel length 100 μm) [cm^2/V · s],on/off ratio ION/IOFF ([2]; channel length 100 μm),threshold voltage VT ([2]; channel length 100 μm) [V],other results
"CCCC(C)c1ccc2cc3c(cc2c1)sc1c2cc4ccc(C(C)CCC)cc4cc2sc31 (stereo not drawn) [2,9-1MB-DNTT, 2,9-Bis(1-methylbutyl)dinaphtho [2,3-b:2′,3′-f]thieno[3,2-b]thiophene]",1.80,1 × 10^7,+4 V,–,–,–,–,–,–,–
"CCCCC(C)c1ccc2cc3c(cc2c1)sc1c2cc4ccc(C(C)CCCC)cc4cc2sc31 (stereo not drawn) [2,9-1MP-DNTT, 2,9-Bis(1-methylpentyl)dinaphtho[2,3-b:2′,3′-f]thieno[3,2-b]thiophene]",1.01,2 × 10^6,+2 V,0.70,7 × 10^6,0,–,–,–,average hole mobility μmean ([1]; channel length 3 μm): 0.35 cm^2/V · s; on/off ratio ION/IOFF ([1]; channel length 3 μm): 2 × 10^7; threshold voltage VT ([1]; channel length 3 μm): +6 V; average hole mobility μmean ([1]; channel length 5 μm): 0.56 cm^2/V · s; on/off ratio ION/IOFF ([1]; channel length 5 μm): 1 × 10^7; threshold voltage VT ([1]; channel length 5 μm): +5 V; average hole mobility μmean ([1]; channel length 20 μm): 1.50 cm^2/V · s; on/off ratio ION/IOFF ([1]; channel length 20 μm): 8 × 10^6; threshold voltage VT ([1]; channel length 20 μm): 0 V; average hole mobility μmean ([2]; channel length 50-200 μm): 1-3 cm^2/V · s; on/off ratio ION/IOFF ([2]; channel length 50-200 μm): ~10^6; threshold voltage VT ([2]; channel length 50-200 μm): ~−0 V
"CCCCC(C)c1ccc2cc3c(cc2c1)sc1c2cc4ccccc4cc2sc31 (stereo not drawn) [Compound 2-1MP-DNTT, 2-(1-methylpentyl)dinaphtho[2,3-b:2′,3′-f]thieno[3,2-b]thiophene]",–,–,–,–,–,–,2.3,~10^6,~−60,–
"CCCCC(C)c1ccc2cc3c(cc2c1)sc1c2ccccc2sc31 (stereo not drawn) [Compound 2-1MP-NTTB, 2-(1-methylpentyl)naphtho[2,3-b]benzo[1,2-f]thieno[3,2-b]thiophene]",0.14,~10^7,~−2 V,0.10,~10^6,~−2,0.3,~10^6,~−25,–
